The list does not hold the whole screen: it gathers tests that were run many times, whatever their T/C, doses with no T/C, and many T/C values between a quarter and a half above the control. Other doses and runs of a compound stand elsewhere. T/C gives the treated animals as a percentage of the vehicle group. Some doses have a count of surviving animals in place of a T/C: the source files T/C as zero there, which appears to mark a toxic dose or a test without result, not a measured value. Some survivor counts are full or nearly so, which does not show that the dose was tolerated: the source hardly ever lists a survival T/C far under the control, and the zero likely stands for such cases as well. Counts of survivors are from the toxicity check (mostly the fifth day) where no day follows; animals may have died later. Schedules are NCI's codes, taken here to give the interval after Q, in days (D) or hours (H), and the number of doses after X. For survival time, this PubChem deposit counts one and a half times the control or more as active, and values a quarter to a half above the control carry no call in these data; other NCI protocols may use other cut-offs. Some entries hold several experiments; the results are listed from low to high. Counts like (3×) stand for listed records that agree. Some T/C values are followed by the survivors on the day toxicity was checked, most often the fifth; without a count, all were alive then.

Drawing on PubChem BioAssay AID328 (DTP/NCI, 2004), this text covers survivor count and T/C for 15 compounds.

In this assay the test system is BDF1 mice, P388 leukemia ip, median survival T/C. The assay is described as follows: NCI In Vivo Anticancer Drug Screen. Data for tumor model P388 Leukemia (intraperitoneal) in B6D2F1 (BDF1) mice. The conditions noted are these: T/C endpoint: median survival time, higher T/C = longer survival. The gist of the method: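 Read-out is survival of treated animals expressed relative to the vehicle group, as a T/C ratio.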

The mark [1] stands for this setting: dose: 3.12 mg/kg/injection, schedule: Q01DX009 (ip), vehicle: saline.
Where [2] appears, read: dose: 4.68 mg/kg/injection, schedule: Q01DX009 (ip), vehicle: saline.
[3] abbreviates: dose: 100.0 mg/kg/injection, schedule: Q01DX009 (ip), vehicle: Klucel (hydroxypropylcellulose) (HPC).
The mark [4] stands for this setting: dose: 200.0 mg/kg/injection, schedule: Q01DX009 (ip), vehicle: Klucel (hydroxypropylcellulose) (HPC).
[5] abbreviates: dose: 400.0 mg/kg/injection, schedule: Q01DX009 (ip), vehicle: Klucel (hydroxypropylcellulose) (HPC).
Setting [6] is: dose: 48.0 mg/kg/injection, schedule: Q01DX009 (ip), vehicle: saline + alcohol.
[7] abbreviates: dose: 200.0 mg/kg/injection, schedule: Q04DX003 (ip), vehicle: Klucel (hydroxypropylcellulose) (HPC).

For the compound `CC[C@H](/C=C/[C@@H](C)[C@H]1CC[C@H]2[C@@H]3CC=C4C[C@@H](OC(=O)/C=C\C(=O)O)CC[C@]4(C)[C@H]3CC[C@]12C)C(C)C`, the survivor count was 6 of 6 (dose: 35.0 mg/kg/injection, schedule: Q01DX009 (ip), vehicle: other); 5 of 6 (dose: 55.0 mg/kg/injection, schedule: Q01DX009 (ip), vehicle: other); 0 of 6 (dose: 80.0 mg/kg/injection, schedule: Q01DX009 (ip), vehicle: other).
Take `c1cc[c]([Pb]([c]2ccccc2)([c]2ccccc2)[n]2ccc3ccccc32)cc1`: the T/C was 133 % of control (dose: 1.56 mg/kg/injection, schedule: Q01DX009 (ip), vehicle: saline); 133 and 135 % of control under setting [1]; 130 % of control under setting [2]. Moreover, the survivor count is, setting by setting: (dose: 2.05 mg/kg/injection, schedule: Q01DX009 (ip), vehicle: saline) 3 of 6; (dose: 3.12 mg/kg/injection, schedule: Q01DX009 (ip), vehicle: other) 5 of 6; under setting [1], 0 of 6; (dose: 4.68 mg/kg/injection, schedule: Q01DX009 (ip), vehicle: other) 5 of 6; under setting [2], 3 of 6; (dose: 6.6 mg/kg/injection, schedule: Q01DX009 (ip), vehicle: saline) 6 of 6. For the same compound, the survivor count (dose: 10.0 mg/kg/injection, schedule: Q01DX009 (ip), vehicle: saline) is reported as 2 of 6 and the survivor count (dose: 15.0 mg/kg/injection, schedule: Q01DX009 (ip), vehicle: saline) is listed as 0 of 6.
In the case of `CCCCCCCCOC(=O)c1[nH]cnc1/N=N\N(C)C`, the survivor count by setting is: under setting [3], 6 of 6; under setting [4], 6 of 6; under setting [5], 6 of 6.
Regarding `c1cc2c(c(CC3CO3)c1CC1CO1)OCCOCCOCCOCCO2` (stereo not given), the T/C is, setting by setting: (dose: 12.0 mg/kg/injection, schedule: Q01DX009 (ip), vehicle: saline + alcohol) 127 % of control; (dose: 24.0 mg/kg/injection, schedule: Q01DX009 (ip), vehicle: saline + alcohol) 130 % of control; under setting [6], 137 % of control. Under setting [6], the survivor count is reported as 3 of 6.
In the case of `BrCc1ccc2c3c(ccc(CBr)c13)CC2`, the T/C was 136 % of control (dose: 1.3 mg/kg/injection, schedule: Q04DX003 (ip), vehicle: saline); 145 % of control (dose: 2.1 mg/kg/injection, schedule: Q04DX003 (ip), vehicle: saline); 130 % of control (dose: 4.8 mg/kg/injection, schedule: Q04DX003 (ip), vehicle: Klucel (hydroxypropylcellulose) (HPC)); 130 % of control (dose: 5.5 mg/kg/injection, schedule: Q01DX009 (ip), vehicle: Klucel (hydroxypropylcellulose) (HPC)); 140 % of control (dose: 7.2 mg/kg/injection, schedule: Q04DX003 (ip), vehicle: Klucel (hydroxypropylcellulose) (HPC)); 128 % of control (dose: 8.2 mg/kg/injection, schedule: Q01DX009 (ip), vehicle: Klucel (hydroxypropylcellulose) (HPC)). For the same compound, the T/C is, setting by setting: (dose: 11.0 mg/kg/injection, schedule: Q04DX003 (ip), vehicle: Klucel (hydroxypropylcellulose) (HPC)) 145 % of control; (dose: 12.5 mg/kg/injection, schedule: Q01DX009 (ip), vehicle: Klucel (hydroxypropylcellulose) (HPC)) 133 % of control; (dose: 25.0 mg/kg/injection, schedule: Q01DX009 (ip), vehicle: Klucel (hydroxypropylcellulose) (HPC)) 132 % of control; (dose: 50.0 mg/kg/injection, schedule: Q01DX009 (ip), vehicle: Klucel (hydroxypropylcellulose) (HPC)) 127 and 145 % of control; (dose: 132.0 mg/kg/injection, schedule: Q04DX003 (ip), vehicle: Klucel (hydroxypropylcellulose) (HPC)) 129 and 145 % of control; (dose: 132.0 mg/kg/injection, schedule: Q04DX003 (ip), vehicle: saline) 127 % of control. Further, the T/C under setting [7] is 140 % of control [5 of 6 alive]. Besides, the survivor count is, setting by setting: (dose: 2.4 mg/kg/injection, schedule: Q01DX009 (ip), vehicle: Klucel (hydroxypropylcellulose) (HPC)) 0 of 6; (dose: 3.6 mg/kg/injection, schedule: Q01DX009 (ip), vehicle: Klucel (hydroxypropylcellulose) (HPC)) 0 of 6; under setting [4], 4 of 6; under setting [7], 5 of 6; (dose: 200.0 mg/kg/injection, schedule: Q04DX003 (ip), vehicle: saline) 6 of 6; under setting [5], 1 of 6.
`CCOC(=O)C(N)CSC(c1ccccc1)(c1ccccc1)c1ccccc1` (stereo not given): for the setting “dose: 22.0 mg/kg/injection, schedule: Q04DX003 (ip), vehicle: saline”, the T/C is 127 % of control.
Take `COc1cc2c(cc1OC)-c1cc3cc(OC)c(OC)cc3c(C)[n+]1CC2`: the survivor count under setting [3] is 0 of 3, the survivor count under setting [4] is recorded as 0 of 3 and the survivor count under setting [5] was 0 of 3.
Take `O=S(=O)(Sc1ccc(N(CCCl)CCCl)cc1)c1ccc(N(CCCl)CCCl)cc1`: the T/C was 135 % of control (dose: 300.0 mg/kg/injection, schedule: Q01DX009 (ip), vehicle: saline with Tween-80) and 140 % of control [5 of 6 alive] (dose: 400.0 mg/kg/injection, schedule: Q01DX009 (ip), vehicle: saline with Tween-80).
Consider `CCO/C=C/C=C1C(=O)N(C)C(=O)N(C)C1=O`, for which the T/C by setting is: (dose: 100.0 mg/kg/injection, schedule: Q01DX009 (ip), vehicle: other) 125 % of control; (dose: 200.0 mg/kg/injection, schedule: Q01DX009 (ip), vehicle: other) 130 % of control.
`COc1ccc2nc3cc(Cl)ccc3c(Nc3ccc(O)c(CN(CCCl)CCCl)c3)c2c1`: the survivor count by setting is: (dose: 0.2 mg/kg/injection, schedule: Q01DX009 (ip), vehicle: saline with Tween-80) 6 of 6; (dose: 3.75 mg/kg/injection, schedule: Q04DX003 (ip), vehicle: saline) 5 of 6; (dose: 7.5 mg/kg/injection, schedule: Q04DX003 (ip), vehicle: saline) 3 of 6; (dose: 15.0 mg/kg/injection, schedule: Q04DX003 (ip), vehicle: saline) 0 of 6. Also, the T/C was 131 and 140 % of control (dose: 0.5 mg/kg/injection, schedule: Q04DX003 (ip), vehicle: saline); 145 % of control (dose: 0.75 mg/kg/injection, schedule: Q04DX003 (ip), vehicle: saline); 133 % of control (dose: 0.88 mg/kg/injection, schedule: Q04DX003 (ip), vehicle: saline).
For the compound `Cc1c[nH]c2nccnc12`, the T/C (dose: 12.5 mg/kg/injection, schedule: Q01DX009 (ip), vehicle: water) was 127 % of control; the T/C (dose: 25.0 mg/kg/injection, schedule: Q01DX009 (ip), vehicle: water, evaluated on day 20) was 102 (2×) and 105 % of control; the T/C (dose: 25.0 mg/kg/injection, schedule: Q01DX009 (ip), vehicle: water, evaluated on day 22) was 117 % of control.
`CC(=O)SCCNCCNC1CC2CCC1C2` (stereo not given): the survivor count (dose: 23.0 mg/kg/injection, schedule: Q01DX009 (ip), vehicle: saline) was 5 of 6.
In the case of `Cc1nc2[nH]c(=O)ccc2c(C)c1N`, the survivor count was 0 of 6 (dose: 200.0 mg/kg/injection, schedule: Q04DX002 (ip), vehicle: saline with Tween-80) and 0 of 6 (dose: 400.0 mg/kg/injection, schedule: Q04DX002 (ip), vehicle: saline with Tween-80).
In the case of `CN=C1N[N+]2=CCCCC2S1` (stereo not given), where the note is “dose: 90.0 mg/kg/injection, schedule: Q01DX009 (ip), vehicle: saline”, the T/C was 149 % of control.
Take `O=S(=O)([O-])[O-].OCCNCCNCC[OH2+].OCCNCCNCC[OH2+].[Cu+2]`: the survivor count by setting is: (dose: 50.0 mg/kg/injection, schedule: Q01DX009 (ip), vehicle: saline) 3 of 6; (dose: 100.0 mg/kg/injection, schedule: Q01DX009 (ip), vehicle: saline) 0 of 6; (dose: 200.0 mg/kg/injection, schedule: Q01DX009 (ip), vehicle: saline) 0 of 6.
